Test results taken from patent US9132099B2, “Medical implants and methods for regulating the tissue response to vascular closure devices” (Vascular Therapies LLC, priority 2001, dated 2015).
At least one compound was matched to its structure with a doubt left.

Columns and labels:
[1] = Rate of drug release from collagen matrix in vitro, batch assay; format: physicochemical; conditions: collagen matrix saturated with the drug
Method: Aliquots are collected at various time intervals from the wells. A combination of dispersed and conjugated forms is also prepared. […] The samples are placed in wells and 1 ml of elution media containing serum are added. Aliquots are taken every hour.
These measurements are made using batch assay and, therefore, represent release rates at 0 ml/min flow rate. The results are tabulated in Table 7 and graphically illustrated in FIG. 14. Concentrations of the antiproliferative drug are in μg/ml.

Collagenase = Collagenase activity in culture media, chromogenic substrate hydrolysis; format: biochemical; conditions: aliquots of media, five days, plain matrix = 100
Method: Prefabricated collagen matrices were placed in different antiproliferative drug solutions until complete saturation occurred. […] The collagen matrices were saturated with these compounds at a concentration of 25 μg/ml lyophilized, washed with 0.066 M phosphate buffer of pH 7.4 at 37° C. for 24 hours and cut in the shape of a disc with density of compound of about 5 μg/cm^2. After washing, sterile discs 15 mm in diameter were placed in a 24-well culture plate, and cells were seeded at a density of 5,000/cm^2. Five days later, cell number was counted and enzymatic activity evaluated in the aliquots of media by chromogenic substrate hydrolysis and spectrophotometry. Among the tested agents in this comparative in vitro test, paclitaxel and rapamycin (sirolimus) performed similarly.

CN(C)[C@@H]1C(O)=C(C(N)=O)C(=O)[C@@]2(O)C(O)=C3C(=O)c4c(O)cccc4[C@@](C)(O)[C@H]3C[C@@H]12 [Tetracycline]
time of peak release from saturated collagen matrix [1]: about three
Collagenase Activity % (Collagenase): 56 ± 8%
